These are yes or no findings as the source states them, for the method shown. Binding seen in cells or lysates may run through a third protein. Some entries that bind do so weakly or less than the wild type. Sequences can lack the tags named with a protein.

We go through one substance from publication PMC3006207, “Phosphorylation-Dependent Protein Interaction with Trypanosoma brucei 14-3-3 Proteins that Display Atypical Target Recognition” (PLoS ONE, 2010).

For the experiment, the target named is T1, GST-14-3-3τ (human 14-3-3τ fused to glutathione S-transferase) (human) (UniProt P27348).
T1 sequence: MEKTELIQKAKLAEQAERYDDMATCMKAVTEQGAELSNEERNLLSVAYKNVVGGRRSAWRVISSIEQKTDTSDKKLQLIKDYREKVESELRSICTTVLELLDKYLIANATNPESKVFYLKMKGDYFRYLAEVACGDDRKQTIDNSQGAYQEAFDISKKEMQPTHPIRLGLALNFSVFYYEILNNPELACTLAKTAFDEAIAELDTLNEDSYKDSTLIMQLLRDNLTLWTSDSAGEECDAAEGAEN
Briefly: pull-down; GST-14-3-3 proteins bound to glutathione beads; HeLa cell lysates in NP-40 lysis buffer (150 mM NaCl, 10 mM HEPES pH 7.5, 0.2% NP-40, 50 mM NaF, 1 mM Na3VO4); Western blot with anti-human c-Raf-1; only the target purified.

Consider “human c-Raf 1 (from UniProt P04049 1-648)”, for which the binding entry is listed as “binds”.
